Assay results as given in PubChem BioAssay AID248 (DTP/NCI, 2004).
The list shows only some results of the screen, not a fair sample: it is rich in T/C values a quarter to a half above the control, in often repeated tests (any T/C) and in doses without a T/C. Further doses and runs are listed elsewhere. T/C gives the treated animals as a percentage of the vehicle group. Some doses have a count of surviving animals in place of a T/C: the source holds a T/C of zero for them, seemingly a mark for toxic or unscored doses. Some survivor counts are full or nearly so, which does not show that the dose was tolerated: the source hardly ever lists a survival T/C far under the control, and the zero likely stands for such cases as well. Survivors were counted at the toxicity check, usually on the fifth day, unless a day is given; later deaths do not show. Schedules are NCI's codes, taken here to give the interval after Q, in days (D) or hours (H), and the number of doses after X. For survival time, this PubChem deposit counts one and a half times the control or more as active, and values a quarter to a half above the control carry no call in these data; other NCI protocols may use other cut-offs. Some entries were tested several times; their values stand side by side, smallest first. Additions like (4×) count equal records among those shown.

Test system: L1210 leukemia ip in BDF1 mice, survival T/C
Assay: NCI In Vivo Anticancer Drug Screen. Data for tumor model L1210 Leukemia (intraperitoneal) in B6D2F1 (BDF1) mice
Conditions: T/C endpoint: mean survival time, higher T/C = longer survival
[1] = dose: 400.0 mg/kg/injection, schedule: Q04DX003 (ip), vehicle: saline
[2] = dose: 400.0 mg/kg/injection, schedule: Q04DX002 (ip), vehicle: Klucel (hydroxypropylcellulose) (HPC)
[3] = dose: 200.0 mg/kg/injection, schedule: Q01DX009 (ip), vehicle: saline with Tween-80

## CCCCCCCCCCCCCCCCCCCCCCCC(=O)OCC
dose: 100.0 mg/kg/injection, schedule: Q04DX003 (ip), vehicle: saline with Tween-80
  survivor count: 6 of 6
dose: 200.0 mg/kg/injection, schedule: Q04DX003 (ip), vehicle: saline with Tween-80
  survivor count: 6 of 6

## Nc1n[nH]c(N)n1.[Pt]
dose: 200.0 mg/kg/injection, schedule: Q01DX009 (ip), vehicle: saline
  survivor count: 5 of 6
[1]
  survivor count: 2 of 6

## Cc1ccc(C(C)C)c(OCCNC2=NCCN2)c1
dose: 100.0 mg/kg/injection, schedule: Q04DX003 (ip), vehicle: saline
  survivor count: 4 of 6
dose: 200.0 mg/kg/injection, schedule: Q04DX003 (ip), vehicle: saline
  survivor count: 0 of 6
[1]
  survivor count: 0 of 6

## COc1nn(O)cc(C)c1=N
dose: 50.0 mg/kg/injection, schedule: Q04DX002 (ip), vehicle: saline with Tween-80
  survivor count: 3 of 3

## COc1cc2c(cc1OC)C1CCC3=C(O)CCC3=[N+]1CC2 (configuration not stated)
[2]
  survivor count: 3 of 3

## O=C(CF)N(O)c1ccc(/C=C/c2ccccc2)cc1
dose: 400.0 mg/kg/injection, schedule: Q01DX001 (ip), vehicle: carboxymethylcellulose (CMC)
  survivor count: 0 of 4

## Nc1nc2nc(N=Nc3ccc(C(=O)O)c(O)c3)[nH]c2c(=O)[nH]1
dose: 400.0 mg/kg/injection, schedule: Q04DX003 (ip), vehicle: Klucel (hydroxypropylcellulose) (HPC)
  survivor count: 2 of 6

## O=C(NC(=S)Nc1ccc2ccccc2c1)c1ccc(Cl)cc1Cl
dose: 100.0 mg/kg/injection, schedule: Q01DX009 (ip), vehicle: saline with Tween-80
  T/C: 94, 100 (2×), 105 % of control
[3]
  T/C: 89, 93, 97 % of control
  survivor count: 6 of 6
dose: 400.0 mg/kg/injection, schedule: Q01DX009 (ip), vehicle: saline with Tween-80
  T/C: 86, 94, 103, 110 % of control

## COc1cc(C(=O)O/N=C(\N)CCl)cc(OC)c1OC
dose: 100.0 mg/kg/injection, schedule: Q04DX002 (ip), vehicle: Klucel (hydroxypropylcellulose) (HPC)
  survivor count: 1 of 3
dose: 200.0 mg/kg/injection, schedule: Q04DX002 (ip), vehicle: Klucel (hydroxypropylcellulose) (HPC)
  survivor count: 1 of 3
[2]
  survivor count: 0 of 3

## O=C1NC(=O)/C(=C\c2ccc(OCc3ccccc3)c(OCc3ccccc3)c2)N1
dose: 200.0 mg/kg/injection, schedule: Q01DX001 (ip), vehicle: saline with Tween-80
  survivor count: 5 of 6

## O=C1C=C(N2CC2)C(=O)C=C1N1CC1
dose: 5.0 mg/kg/injection, schedule: Q01DX001 (ip), vehicle: other
  T/C: 145 % of control
dose: 9.5 mg/kg/injection, schedule: Q01DX001 (ip), vehicle: other
  survivor count: 6 of 6
dose: 19.0 mg/kg/injection, schedule: Q01DX001 (ip), vehicle: other
  survivor count: 3 of 6
dose: 38.0 mg/kg/injection, schedule: Q01DX001 (ip), vehicle: other
  survivor count: 0 of 6
dose: 75.0 mg/kg/injection, schedule: Q01DX001 (ip), vehicle: other
  survivor count: 0 of 6
dose: 150.0 mg/kg/injection, schedule: Q01DX001 (ip), vehicle: other
  survivor count: 0 of 6
dose: 300.0 mg/kg/injection, schedule: Q01DX001 (ip), vehicle: other
  survivor count: 0 of 6

## Nc1nc(N)c(N=Nc2ccc(C(=O)O)cc2)c(=O)[nH]1
dose: 400.0 mg/kg/injection, schedule: Q01DX001 (ip), vehicle: saline
  survivor count: 3 of 6
